Data source: PubChem BioAssay AID602196 (INSERM, 2012)
Here is a random part of about 23,000 reagents. In the full data, 455 (2%) got an active call. 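Active includes both protection and sensitisation; some change values fall well beyond the stated -50 to +50 range.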 Not all columns of the deposit are shown. Reagent sequences are not shown. Not given: the amount of reagent.

- Test: 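Knock-downs that protect lung cancer cells from cisplatin or sensitise them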
- Cell system: human A549 lung cancer cells
- Reagent: siRNA pair against human genes
- Duration: 48 h transfection before cisplatin; time from cisplatin to read-out not stated
- Conditions: cisplatin at a dose killing half of control-siRNA cells; exact dose and duration not given
- Detection: 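Cisplatin cell death as a shift from the 50% death seen with control siRNA; siRNAs toxic or growth-blocking alone scored 0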
- Scale: two-siRNA summed score (-2 to +2): higher = both siRNAs protect from cisplatin killing; -2 means both sensitise
- Rule for the call: 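Each siRNA scores 0 if harmful alone by LDH or WST-1, otherwise +1 if it reduces and -1 if it increases cisplatin killing; a gene is active when both siRNAs agree (sum +2 or -2)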
- Meaning of the calls: active = both siRNAs shift cisplatin killing the same way; inactive = no consistent shift, or siRNA harmful alone

PNPLA2: two-siRNA summed score (-2 to +2) = -1; outcome = inactive
LOC286404: two-siRNA summed score (-2 to +2) = -1; outcome = inactive
KNTC1: two-siRNA summed score (-2 to +2) = 0; outcome = inactive
LOC284527: two-siRNA summed score (-2 to +2) = 0; outcome = inactive
ARAP3: two-siRNA summed score (-2 to +2) = 0; outcome = inactive
GSK3A: two-siRNA summed score (-2 to +2) = 0; outcome = inactive
CARMIL2: two-siRNA summed score (-2 to +2) = 0; outcome = inactive
SPEF1: two-siRNA summed score (-2 to +2) = 0; outcome = inactive
CD68: two-siRNA summed score (-2 to +2) = 0; outcome = inactive
LOC442524: two-siRNA summed score (-2 to +2) = 1; outcome = inactive
CGREF1: two-siRNA summed score (-2 to +2) = 1; outcome = inactive
TRMT9B: two-siRNA summed score (-2 to +2) = -1; outcome = inactive
SIM2: two-siRNA summed score (-2 to +2) = 0; outcome = inactive
PPEF2: two-siRNA summed score (-2 to +2) = 0; outcome = inactive
LINC00471: two-siRNA summed score (-2 to +2) = 0; outcome = inactive
ZNF181: two-siRNA summed score (-2 to +2) = 0; outcome = inactive
SEC14L3: two-siRNA summed score (-2 to +2) = 0; outcome = inactive
BMP8B: two-siRNA summed score (-2 to +2) = 0; outcome = inactive
NDUFS3: two-siRNA summed score (-2 to +2) = 0; outcome = inactive
KIR2DS5: two-siRNA summed score (-2 to +2) = 0; outcome = inactive
CAMK2N2: two-siRNA summed score (-2 to +2) = 0; outcome = inactive
INO80C: two-siRNA summed score (-2 to +2) = 0; outcome = inactive
MPI: two-siRNA summed score (-2 to +2) = -1; outcome = inactive
SIGLECL1: two-siRNA summed score (-2 to +2) = 0; outcome = inactive
LOC391804: two-siRNA summed score (-2 to +2) = 0; outcome = inactive
MGAT4B: two-siRNA summed score (-2 to +2) = 0; outcome = inactive
LOC401621: two-siRNA summed score (-2 to +2) = 0; outcome = inactive
LOC387978: two-siRNA summed score (-2 to +2) = 0; outcome = inactive
SLC25A28: two-siRNA summed score (-2 to +2) = -1; outcome = inactive
SH3BP5L: two-siRNA summed score (-2 to +2) = 0; outcome = inactive
IRAK4: two-siRNA summed score (-2 to +2) = 0; outcome = inactive
RBMXL1: two-siRNA summed score (-2 to +2) = 0; outcome = inactive
MRPS6: two-siRNA summed score (-2 to +2) = 0; outcome = inactive
LOC402102: two-siRNA summed score (-2 to +2) = 0; outcome = inactive
EZH1: two-siRNA summed score (-2 to +2) = 0; outcome = inactive
PRLR: two-siRNA summed score (-2 to +2) = 0; outcome = inactive
NEURL4: two-siRNA summed score (-2 to +2) = 0; outcome = inactive
LOC441641: two-siRNA summed score (-2 to +2) = 1; outcome = inactive
ZMYND12: two-siRNA summed score (-2 to +2) = 0; outcome = inactive
HYAL4: two-siRNA summed score (-2 to +2) = 0; outcome = inactive

6 of these entries, set out differently.
target,two-siRNA summed score (-2 to +2),outcome
LOC286404,-1,inactive
KNTC1,0,inactive
LOC284527,0,inactive
ARAP3,0,inactive
GSK3A,0,inactive
CARMIL2,0,inactive
